{"sequences": {"note": "Protein sequences, listed by entry. Tags and fused reporters are not part of them.", "UniProt Q9HC98": "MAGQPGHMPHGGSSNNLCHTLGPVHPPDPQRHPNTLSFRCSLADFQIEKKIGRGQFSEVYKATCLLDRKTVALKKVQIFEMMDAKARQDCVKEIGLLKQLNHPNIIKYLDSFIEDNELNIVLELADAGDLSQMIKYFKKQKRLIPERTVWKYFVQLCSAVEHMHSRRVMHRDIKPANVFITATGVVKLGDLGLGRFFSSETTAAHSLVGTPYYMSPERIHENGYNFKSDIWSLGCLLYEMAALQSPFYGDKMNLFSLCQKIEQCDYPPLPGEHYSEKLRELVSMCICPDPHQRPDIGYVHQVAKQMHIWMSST", "UniProt P67809": "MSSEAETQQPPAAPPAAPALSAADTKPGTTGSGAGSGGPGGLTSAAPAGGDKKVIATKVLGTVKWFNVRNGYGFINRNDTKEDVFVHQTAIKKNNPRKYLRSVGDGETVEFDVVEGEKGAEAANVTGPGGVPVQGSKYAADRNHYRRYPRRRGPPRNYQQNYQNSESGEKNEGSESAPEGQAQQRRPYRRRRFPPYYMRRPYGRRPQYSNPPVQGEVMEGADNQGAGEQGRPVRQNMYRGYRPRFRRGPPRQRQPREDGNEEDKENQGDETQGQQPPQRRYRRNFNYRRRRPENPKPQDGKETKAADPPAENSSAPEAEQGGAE"}, "source": "paper PMC12813190", "molecular_target": "NEK6 in HEC-1A cells (UniProt Q9HC98)", "assay": "co-IP; IP-western blot in HEC-1A cells; NEK6 precipitated, YBX1 detected by blot", "note": "No constants are given. Whether binding was seen depends on the method and setting. In cells and extracts the contact can be indirect. Some results given as binding are weak or reduced against the parent protein; the word gives no strength.", "data": [{"substance": "Y-box-binding protein 1 (YBX1), endogenous in HEC-1A cells (from UniProt P67809 1-324)", "values": [{"measurement": "binding", "value": "binds"}]}]}
